The record followed here is patent US7884077B2, “Methods for the treatment of mood disorders” (The McLean Hospital Corporation, priority 2006, dated 2011).

For this series, the system named is human subjects who have been diagnosed with bipolar disorder and are acutely manic. Kind of series: Open-label cumulative-dosing clinical trial of pentazocine in acutely manic subjects. In kind it is in vivo. As for the experimental part: A trial study was conducted to determine the effect of pentazocine on the mood of human subjects who have been diagnosed with bipolar disorder and are acutely manic. Ten subjects (7 male and 3 female) between the ages of 18 and 65 were enrolled in the study. All subjects were admitted to the hospital with a primary diagnosis of bipolar mania by DSMIV criteria. […] Subjects with a current history of substance abuse or a recent history of opiate dependence were excluded. All subjects were deemed competent to give informed consent by non-study physicians. After complete description of the study to the subjects, written informed consent was obtained.
The current study was undertaken in full compliance with federal requirements and with institutional review board approval. The study was designed as an open-label cumulative-dosing trial.
The three-day study consisted of pre-treatment, treatment, and post-treatment days with subjects rated in the morning on all three days and multiple times on the day of treatment. On the treatment day, an initial 50 mg of pentazocine was given by mouth. A second dose was given two hours following the initial dose. […]
Assessment of manic symptoms by YMRS were made daily at the same time in the morning on all three days of the study. […] Data were analyzed using a repeated measures ANOVA (SPSS 14.0).

For `CC(C)=CCN1CCC2(C)c3cc(O)ccc3CC1C2C` (centres unmarked) [pentazocine], the PRN medication use reads like this: (post-treatment day) 0.3 doses/patient; (study (treatment) day) 0.5 doses/patient.
